# Experimental data reported in paper PMC9051092.
# By UniProt entry, the sequences of proteins in these tests, tags left out.
# UniProt Q86WV6: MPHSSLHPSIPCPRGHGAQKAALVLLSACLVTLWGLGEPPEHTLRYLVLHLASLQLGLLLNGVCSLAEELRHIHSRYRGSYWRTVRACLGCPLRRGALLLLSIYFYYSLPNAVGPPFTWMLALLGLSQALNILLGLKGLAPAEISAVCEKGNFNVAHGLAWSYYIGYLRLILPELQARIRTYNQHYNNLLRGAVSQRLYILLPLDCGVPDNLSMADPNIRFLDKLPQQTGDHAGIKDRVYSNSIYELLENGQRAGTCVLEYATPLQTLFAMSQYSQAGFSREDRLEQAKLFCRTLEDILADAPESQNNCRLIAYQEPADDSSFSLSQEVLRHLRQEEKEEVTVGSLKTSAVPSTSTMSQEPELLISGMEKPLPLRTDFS
# How the values were obtained:
# [1] = biological target: mCitrine (mCit)-tagged human STING (human), Q86WV6; assay: affinity purification with mass spectrometry; mCit-STING transiently overexpressed in HEK293T (48 hrs), lysis in 1% NP-40 buffer (20 mM Tris-HCl pH 7.4, 150 mM NaCl), IP with anti-GFP antibody cross-linked to Protein A Dynabeads, 2 hrs at 4 °C, four washes; label-free quantification against empty vector control, n = 3 independent IPs; conditions: remark: other sources report otherwise
# [2] = biological target: mCitrine (mCit)-tagged human STING (human) (UniProt Q86WV6); assay: as above
binding [1],binding [2],Binder
binds,,"TANK-binding-kinase 1 (TBK1), Q9UHD2 1-729 (protein) MQSTSNHLWLLSDILGQGATANVFRGRHKKTGDLFAIKVFNNISFLRPVDVQMREFEVLKKLNHKNIVKLFAIEEETTTRHKVLIMEFCPCGSLYTVLEEPSNAYGLPESEFLIVLRDVVGGMNHLRENGIVHRDIKPGNIMRVIGEDGQSVYKLTDFGAARELEDDEQFVSLYGTEEYLHPDMYERAVLRKDHQKKYGATVDLWSIGVTFYHAATGSLPFRPFEGPRRNKEVMYKIITGKPSGAISGVQKAENGPIDWSGDMPVSCSLSRGLQVLLTPVLANILEADQEKCWGFDQFFAETSDILHRMVIHVFSLQQMTAHKIYIHSYNTATIFHELVYKQTKIISSNQELIYEGRRLVLEPGRLAQHFPKTTEENPIFVVSREPLNTIGLIYEKISLPKVHPRYDLDGDASMAKAITGVVCYACRIASTLLLYQELMRKGIRWLIELIKDDYNETVHKKTEVVITLDFCIRNIEKTVKVYEKLMKINLEAAELGEISDIHTKLLRLSSSQGTIETSLQDIDSRLSPGGSLADAWAHQEGTHPKDRNVEKLQVLLNCMTEIYYQFKKDKAERRLAYNEEQIHKFDKQKLYYHATKAMTHFTDECVKKYEAFLNKSEEWIRKMLHLRKQLLSLTNQCFDIEEEVSKYQEYTNELQETLPQKMFTASSGIKHTMTPIYPSSNTLVEMTLGMKKLKEEMEGVVKELAENNHILERFGSLTMDGGLRNVDCL"
,binds,"transmembrane protein 214 (TMEM214) (protein, UniProt Q6NUQ4 1-689) MATKTAGVGRWEVVKKGRRPGVGAGAGGRGGGRNRRALGEANGVWKYDLTPAIQTTSTLYERGFENIMKRQNKEQVPPPAVEPKKPGNKKQPKKVATPPNQNQKQGRFRSLEEALKALDVADLQKELDKSQSVFSGNPSIWLKDLASYLNYKLQAPLSEPTLSQHTHDYPYSLVSRELRGIIRGLLAKAAGSLELFFDHCLFTMLQELDKTPGESLHGYRICIQAILQDKPKIATANLGKFLELLRSHQSRPAKCLTIMWALGQAGFANLTEGLKVWLGIMLPVLGIKSLSPFAITYLDRLLLMHPNLTKGFGMIGPKDFFPLLDFAYMPNNSLTPSLQEQLCQLYPRLKVLAFGAKPDSTLHTYFPSFLSRATPSCPPEMKKELLSSLTECLTVDPLSASVWRQLYPKHLSQSSLLLEHLLSSWEQIPKKVQKSLQETIQSLKLTNQELLRKGSSNNQDVVTCDMACKGLLQQVQGPRLPWTRLLLLLLVFAVGFLCHDLRSHSSFQASLTGRLLRSSGFLPASQQACAKLYSYSLQGYSWLGETLPLWGSHLLTVVRPSLQLAWAHTNATVSFLSAHCASHLAWFGDSLTSLSQRLQIQLPDSVNQLLRYLRELPLLFHQNVLLPLWHLLLEALAWAQEHCHEACRGEVTWDCMKTQLSEAVHWTWLCLQDITVAFLDWALALISQQ"

# These are yes or no findings as the source states them, for the method shown. In cells and extracts the contact can be indirect. A yes stands for co-enrichment or nearness to the bait. Other partners may have been found.
